Each structure is given as a SMILES string. Some of the results follow. Shown are side measurements of this screen, not its main read-out; they come without a call. The list favours compounds with an active or inconclusive main result. The note in brackets gives the kind of curve behind each potency; many fits are weak.

The nature of this test: qHTS Assay to Find Inhibitors of Chronic Active B-Cell Receptor Signaling. As to conditions: ABC-DLBCL IkBa-CBG/CBR reporter, luminescence ratio (green luciferase fused to IkBa over red control in TMD8 lymphoma cells), 4 h. In outline: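 Cell line TMD8 (human ABC DLBCL), stably expressing tet-inducible CBG68-IkBa fusion and CBR; IMDM/0.5% FBS; cpd up to 46 uM; dox induction, 4 h, 37C/5% CO2; dual luminescence; green/red ratio; MG132 control.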

Setting [1] is: measured here: CBR red luminescence, cell number.
The mark [2] stands for this setting: measured here: IkBa-CBG green luminescence.

For the molecule `COc1ccnc2c1c(=O)n(Cc1cccc(F)c1)c(=O)n2C`, the AC50 under setting [1] is 3.16 µM [falling, full curve, poor fit].
On the same count and under the same terms, the value for `O=C(NN1C(=O)C2C(c3ccccc3)C=CC(c3ccccc3)C2C1=O)c1ccccc1` (stereo unspecified) was 20.6 µM [falling, single point].
Turning to `NC(=O)COC(=O)CCCSc1nc2ccccc2s1`, the AC50 by setting is: under setting [1], 11.2 µM [falling, partial curve, poor fit]; under setting [2], 0.282 µM [rising, partial curve, poor fit].
As for `O=C(N/N=C/c1cccc(NC(=O)c2ccc(Cl)cc2)c1)c1cccc(O)c1`, under setting [1], the AC50 was 1 µM [falling, full curve, poor fit].
With `CCC(C)C(=O)Nc1nnc(SCC(=O)Nc2ccc(F)cc2)s1` (stereo unspecified), the AC50 under setting [1] is 35.5 µM [rising, partial curve, poor fit].
Consider `COc1ccc(CN(C)C(=O)c2cc(-c3ccc(C)cc3C)nc3ccccc23)c(OC)c1OC`, for which the AC50 under setting [1] was 22.4 µM [falling, single point].
On the same count and under the same terms, in the case of `O=C(c1ccccc1)c1ccc(OCC(=O)N2CCOCC2)cc1` it was 35.5 µM [falling, single point]; in that of `CCOC(=O)c1ccccc1NC(=O)CN(c1ccccc1OC)S(=O)(=O)c1ccc(C)cc1`, 3.16 µM [falling, single point].
As to `O=C(/C=C/c1ccc2c(c1)OCO2)Nc1nc2ccccc2s1`, the AC50 under setting [1] is 0.92 µM [falling, full curve, poor fit].
On to `CCOc1cc(N2CCOCC2)c(OCC)cc1NCC(=O)N1CCN(Cc2ccccc2)CC1`, for which the AC50 under setting [1] was 3.55 µM [rising, single point].
Same read-out and setting: the value for `Cc1cccc(Cn2c(CN3CCC(C(=O)NCCc4ccccc4)CC3)cc3ccccc32)c1` was 15.8 µM [falling, single point].
Still for that read-out and setting: in the case of `Cc1ccc(CSCC(=O)N2CCN(Cc3ccc4c(c3)OCO4)CC2)cc1` it was 16.4 µM [falling, single point].
With `O=C(Nc1cccc2ccccc12)N1CCc2ccccc2C1`, the half-maximal activity concentration (AC50) under setting [1] is 8.2 µM [falling, partial curve].
Same read-out and setting: in the case of `Cc1ccc(NS(=O)(=O)c2ccc(OCC(=O)Nc3cccc([N+](=O)[O-])c3)c(C)c2)cc1` it was 12.6 µM [falling, partial curve, poor fit]; in that of `NC(=O)CS(=O)(=O)c1nc2ccccc2n1CC(=O)N1CCCCC1`, 29.1 µM [rising, single point].
Turning to `COc1ccc(CCC(C)NCc2ccc(C(F)(F)F)cc2)cc1` (stereo unspecified), the AC50 under setting [1] is 35.5 µM [falling, single point] and the AC50 under setting [2] was 35.5 µM [rising, partial curve, poor fit].
For `NC(=O)c1ccccc1NC(=O)/C=C/c1ccc(Cl)cc1`, the AC50 under setting [1] is 13 µM [falling, single point].
The same measure, in the same setting: in the case of `C/C(=N/NC(=O)c1sc(NS(=O)(=O)c2ccccc2)nc1C)c1ccc(F)cc1` it was 7.31 µM [falling, partial curve, poor fit].
`O=C(Nc1cc(-c2ccccc2)cs1)c1ccco1`: the AC50 under setting [1] is 16.4 µM [falling, single point].
As for `CC(=O)c1cccc(CN2CCCCC2C(=O)Nc2ccc(Oc3ccccc3)nc2)c1` (stereo unspecified), the AC50 under setting [1] is 2 µM [rising, partial curve].
On the same count and under the same terms, the value for `COc1ccc(C2c3c(-c4ccccc4O)n[nH]c3C(=O)N2Cc2ccco2)cc1` (stereo unspecified) was 8.91 µM [falling, partial curve, poor fit].
On to `CCOC(=O)N1CCN(C(=O)Nc2ccc3nc(C)c(C)nc3c2)CC1`, for which, under setting [1], the AC50 is 11.2 µM [falling, partial curve].
Same read-out and setting: the value for `Cc1cccc(NC(=O)CSc2cccc3cccnc23)c1` was 3.98 µM [falling, partial curve, poor fit].
Take `COC(=O)c1cc(Nc2cc(C)nc3ncnn23)cc(C(=O)OC)c1`: the AC50 under setting [1] was 32.6 µM [rising, single point].
On to `Cc1ccc(S(=O)(=O)N(CCCO)CC(O)CON=C2c3ccccc3-c3ccccc32)cc1` (stereo unspecified), for which the AC50 under setting [1] was 29.1 µM [falling, single point].
`CN(C)C(CNC(=O)c1ccc(NS(=O)(=O)c2ccc(F)c(F)c2)cc1)c1ccccc1` (stereo unspecified): the AC50 under setting [1] was 14.6 µM [falling, single point].
`COCCn1c(=N)c(S(=O)(=O)c2ccc(Br)cc2)cc2c(=O)n3ccccc3nc21`: under setting [1], the AC50 was 25.1 µM [rising, partial curve, poor fit].
Still for that read-out and setting: the value for `COc1ccc(-c2cc(C(F)(F)F)n3nc(C(=O)Nc4c(C)n(C)n(-c5ccccc5)c4=O)c(Cl)c3n2)cc1` was 1.78 µM [rising, partial curve].
As for `CCCn1c(C(C)Nc2nc(-c3cc(Cl)c(N)c(Cl)c3)cs2)nc2cc(Cl)c(N3CCCCC3)cc21` (stereo unspecified), the AC50 under setting [1] is 6.31 µM [falling, partial curve].
Same read-out and setting: the value for `O=C(COC(=O)c1cc(Br)ccc1O)Nc1ccc2c(c1)OCCO2` was 5.17 µM [falling, full curve]; that for `Cc1ccoc1C(=O)N1CCN(C(=O)c2occc2C)CC1` was 31.6 µM [rising, partial curve, poor fit].
The same measure, in the same setting: the value for `COC(=O)c1scc(S(C)(=O)=O)c1-n1cccc1` was 35.5 µM [rising, single point].
Same read-out and setting: the value for `O=C(/C=C\Nc1ccc(S(=O)(=O)Nc2ncccn2)cc1)c1ccccc1` was 4.47 µM [rising, partial curve, poor fit].
In the case of `CCc1nc(SCC(=O)N2c3ccccc3CC2C)c2c(C)c(C)sc2n1` (stereo unspecified), the AC50 under setting [1] was 2.51 µM [falling, full curve, poor fit].
Take `COc1ccc(N(CC(=O)NCc2ccc(C)cc2)S(=O)(=O)c2c(C)noc2C)cc1`: the AC50 under setting [1] is 20 µM [rising, single point].
In the case of `Cc1ccc(CNC(=O)CCSCc2cccc(F)c2)cc1`, the AC50 under setting [1] is 35.5 µM [rising, single point].
For the molecule `Cc1ccc(NS(=O)(=O)c2cccc(C(=O)Nc3cc(C)on3)c2)cc1`, the AC50 under setting [1] was 14.6 µM [falling, partial curve, poor fit].
For the molecule `Cc1ccc2cc3cc(C(=O)N4CCN(C(=O)c5ccco5)CC4)sc3nc2c1`, the AC50 under setting [1] is 0.731 µM [rising, partial curve, poor fit].
Regarding `COc1cc(Cn2c(-c3ccc(O)c(OC)c3)nc3ccccc32)ccc1O`, under setting [1], the AC50 was 8.91 µM [falling, partial curve, poor fit].

The values are drawn from PubChem BioAssay AID493014 (National Center for Advancing Translational Sciences (NCATS), 2011).
